Where “and” joins values, the source holds several entries; their conditions need not be identical. Equal values may be shown once. The list shows a part of the results. Repeats in this data set agree poorly, so a single value says little.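 HEK293T cells were given each compound shortly before transfection with a reporter in which red mCherry is followed by the SARS-CoV-2 frameshift element and then GFP in the −1 frame, so GFP appears only after frameshifting.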
Test system: HEK293T
Test: percent viability (nuclei count) relative to control; higher = more viable cells
Conditions: 10 µM; 24 h

First: NC(=O)NC(=O)C(Oc1ccc(Cl)cc1)Oc1ccc(Cl)cc1 [urefibrate]
Second: O=C(O)Cc1ccccc1Oc1ccc(Cl)cc1Cl [fenclofenac]
The percent viability of the first is lower: 54.3% for the first, 394% for the second.

Going from `CCCCNC(=O)NS(=O)(=O)c1ccc(N)cc1` [carbutamide] to `NS(=O)(=O)c1ccc(C(=O)O)cc1` [carzenide], the percent viability rises from 161% to 365%.

Compared with `CCCCCCCC(=O)O` [octanoic acid], `CSCCC(N)C(=O)O` (stereo not given) is higher in percent viability: 122% for the first, 251% for the second.

First: COc1cc2c(cc1OC)CC(=O)N(CCCN(C)C[C@H]1Cc3cc(OC)c(OC)cc31)CC2 [ivabradine]
Second: COc1ccc(CCNC[C@H](O)c2ccc(O)cc2)cc1OC [denopamine]
The percent viability of the first is higher: 208% for the first, 200% for the second.

Compared with `CS(=O)(=O)c1ccc([C@@H](O)[C@@H](CF)NC(=O)C(Cl)Cl)cc1`, `CCC(NC(C)C)C(O)c1ccc(O)c(O)c1` (stereo not given) is lower in percent viability: 255% for the first, 213% for the second.

First: Clc1ccccc1CN1CCc2sccc2C1 [ticlopidine]
Second: NCC1CC(=O)N(Cc2ccccc2)C1 (stereo not given) [nebracetam]
The percent viability of the first is lower: 193% for the first, 306% for the second.

Compared with `CCC[C@@H]1C[C@@H](C(=O)N[C@@H]([C@H]2O[C@H](SC)[C@H](O)[C@@H](O)[C@H]2O)[C@@H](C)O)N(C)C1` [lincomycin], `C[C@H](CCC(=O)NCCS(=O)(=O)O)[C@H]1CC[C@H]2[C@@H]3[C@@H](O)C[C@@H]4C[C@H](O)CC[C@]4(C)[C@H]3CC[C@]12C` [Tauroursodeoxycholic acid] is lower in percent viability: 323% for the first, 209% for the second.

Going from `CCCCN1CCC(CNC(=O)c2c3n(c4ccccc24)CCCO3)CC1` [piboserod] to `c1ccc(OCc2ccc(CCCN3CCOCC3)cc2)cc1` [fomocaine], the percent viability falls from 89.9% to 86.2%.

Compared with `CC(N/C(=N\C#N)Nc1ccncc1)C(C)(C)C` (stereo not given), `Cc1ccc(O)c([C@H](CCN(C(C)C)C(C)C)c2ccccc2)c1` [tolterodine] is higher in percent viability: 166% for the first, 235% for the second.

Going from `CC(C)NCC(O)COc1ccc(CCOCC2CC2)cc1` (stereo not given) [betaxolol] to `CC(CCc1ccc(O)cc1)NCC(O)c1ccc(O)cc1` (stereo not given), the percent viability rises from 126% to 131%.

Compared with `C[C@@H]1O[C@@H](OC[C@H]2O[C@@H](Oc3c(-c4ccc(OCCO)c(OCCO)c4)oc4cc(OCCO)cc(O)c4c3=O)[C@H](O)[C@@H](O)[C@@H]2O)[C@H](O)[C@H](O)[C@H]1O` [troxerutin], `CCOC(=O)CCC(=O)O[C@H]1[C@H](O[C@@H]2[C@@H](C)[C@H](O[C@H]3C[C@@](C)(OC)[C@@H](O)[C@H](C)O3)[C@@H](C)C(=O)O[C@H](CC)[C@@](C)(O)[C@H](O)[C@@H](C)C(=O)[C@H](C)C[C@@]2(C)O)O[C@H](C)C[C@@H]1N(C)C` is lower in percent viability: 202% for the first, 174% for the second.

Compared with `CNS(=O)(=O)Cc1ccc2[nH]cc(CCN(C)C)c2c1` [Sumatriptan Succinate], `CC(C)C(=O)Oc1ccc(CO)cc1[C@H](CCN(C(C)C)C(C)C)c1ccccc1` [Fesoterodine] is higher in percent viability: 249% for the first, 294% for the second.

First: CC[C@H](C)[C@H](N)C1=N[C@H](C(=O)N[C@@H](CC(C)C)C(=O)N[C@H](CCC(=O)O)C(=O)N[C@H](C(=O)N[C@H]2CCCCNC(=O)[C@H](CC(N)=O)NC(=O)[C@@H](CC(=O)O)NC(=O)[C@H](Cc3cnc[nH]3)NC(=O)[C@@H](Cc3ccccc3)NC(=O)[C@H]([C@@H](C)CC)NC(=O)[C@@H](CCCN)NC2=O)[C@@H](C)CC)CS1 [Bacitracin]
Second: C/C=C\C=C\[C@@H]1O[C@](O)([C@H](CC)C(=O)NC/C=C/C=C(\C)[C@@H](OC)[C@H](C)[C@@H]2O[C@H](/C=C/C=C/C=C(\C)C(=O)c3c(O)cc[nH]c3=O)[C@H](O)[C@@H]2O)[C@H](O)[C@H](O)C1(C)C [mocimycin]
The percent viability of the first is higher: 296% for the first, 137% for the second.

Compared with `Cc1cccc(C)c1NC(=O)CN1CCN(CCCC(c2ccc(F)cc2)c2ccc(F)cc2)CC1` [lidoflazine], `COc1ccc(OC(=O)N(CC(=O)O)Cc2ccc(OCCc3nc(-c4ccccc4)oc3C)cc2)cc1` [muraglitazar] is lower in percent viability: 172% for the first, 65.6% for the second.

First: N/C=C1\Cc2ccccc2C1=O [drinidene]
Second: CN1C(C(=O)Nc2ccccn2)=C(O)c2ccccc2S1(=O)=O [Piroxicam]
The percent viability of the first is lower: 179% for the first, 219% for the second.

First: CCC(=O)O[C@]1(C(=O)CCl)[C@@H](C)C[C@H]2[C@@H]3C[C@H](F)C4=CC(=O)C=C[C@]4(C)[C@@]3(F)[C@@H](O)C[C@@]21C [Ultravate]
Second: CC1(C)O[C@@H]2C[C@H]3[C@@H]4C[C@H](F)C5=CC(=O)C=C[C@]5(C)[C@H]4[C@@H](O)C[C@]3(C)[C@]2(C(=O)CO)O1 [Nasalide]
The percent viability of the first is lower: 166% for the first, 207% for the second.

Going from `Cc1ccc(-c2ncc(Cl)cc2-c2ccc(S(C)(=O)=O)cc2)cn1` [etoricoxib] to `CCc1oc2ccccc2c1C(=O)c1cc(I)c(O)c(I)c1` [benziodarone], the percent viability rises from 23.3% to 43.5%.

First: COc1ccc(OC)c(C(O)CNC(=O)CN)c1 (stereo not given) [midodrine]
Second: CC[N+](C)(CC)CCOC(=O)C(O)(c1ccccc1)C1CCCCC1 (stereo not given) [oxyphenonium bromide]
The percent viability of the first is higher: 307% for the first, 149% for the second.

With `Cc1c(C)c2c(c(C)c1O)CCC(C)(CCCC(C)CCCC(C)CCCC(C)C)O2` (stereo not given) [Vitamin E] the percent viability was 117%.

For `CC(=O)OCC(=O)[C@@]12OC3(CCCC3)O[C@@H]1C[C@H]1[C@@H]3CCC4=CC(=O)C=C[C@]4(C)[C@@]3(F)[C@@H](O)C[C@@]12C` [amcinonide], the percent viability was 298% and 131%.
For `CCCCCN(CCCCC)C(=O)C(CCC(=O)O)NC(=O)c1ccc(Cl)c(Cl)c1` (stereo not given) [lorglumide], the percent viability was 290% and 178%.
`CC(=O)NC[C@H]1CN(c2ccc(N3CCOCC3)c(F)c2)C(=O)O1` [linezolid] was tested, and the percent viability was 252% and 206%.

Source: the supplement of paper PMC8256030
